Data as given in PubChem BioAssay AID504764 (Drosophila RNAi Screening Center, 2011)
The deposit covers about 22,000 reagents; this is an unselected part of those with a known target gene and a result. Over the whole deposit, 403 (1.9%) got an active call. 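Unnormalised raw counts per well; ratio z-scores behind the hit calls and whether each hit raises or lowers signal are not deposited.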 Entries without a mark were called inactive. Reagents against one gene are numbered here. No sequences are given here. The record does not give: the amount of reagent.

Aim: 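Genes whose knock-down alters Notch-dependent transcription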 (primary screen)
Cell system: Drosophila Kc167 cells
Reagent: long dsRNA against Drosophila genes
Duration: about 5 days (4 days dsRNA, then 24 h after transfection)
Challenge: transfection of constitutively active membrane-tethered Notch lacking the extracellular domain, read 24 h later
Detection: 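Light from a Notch-responsive E(spl)m3 luciferase reporter under active Notch, with control-promoter and no-Notch reporter wells to normalise; raw counts from paired wells a and b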
Direction: induced reporter light, run 1, well a and induced reporter light, run 1, well b: higher = more light from the Notch target reporter with active Notch; control promoter light, run 1, well a and control promoter light, run 1, well b: higher = more light from the viral control promoter (cell number, transfection, viability); uninduced reporter light, run 1, well a: higher = more light from the Notch target reporter without active Notch
Call rule: 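Hit if the duplicate-averaged log2 ratio of induced to control-promoter light gives a plate-wise z beyond ±2, or induced to uninduced beyond ±1.8; weak-control or discordant-duplicate wells dropped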
Calls: active = modifier hit (raised or lowered Notch signal); inactive = not a hit

Cen | induced reporter light, run 1, well a: 2.19e5; induced reporter light, run 1, well b: 2.70e5; control promoter light, run 1, well a: 1.85e5; control promoter light, run 1, well b: 1.87e5; uninduced reporter light, run 1, well a: 15405
Atg4a | induced reporter light, run 1, well a: 96675; induced reporter light, run 1, well b: 1.03e5; control promoter light, run 1, well a: 1.09e5; control promoter light, run 1, well b: 1.14e5; uninduced reporter light, run 1, well a: 8590
CG32170 | induced reporter light, run 1, well a: 1.61e5; induced reporter light, run 1, well b: 1.36e5; control promoter light, run 1, well a: 2.58e5; control promoter light, run 1, well b: 2.81e5; uninduced reporter light, run 1, well a: 15950
CG11085 | induced reporter light, run 1, well a: 1.67e5; induced reporter light, run 1, well b: 1.48e5; control promoter light, run 1, well a: 3.20e5; control promoter light, run 1, well b: 2.80e5; uninduced reporter light, run 1, well a: 12170
Smyd4-1 | induced reporter light, run 1, well a: 1.67e5; induced reporter light, run 1, well b: 1.57e5; control promoter light, run 1, well a: 1.95e5; control promoter light, run 1, well b: 1.48e5; uninduced reporter light, run 1, well a: 17180
RpS16 | induced reporter light, run 1, well a: 78985; induced reporter light, run 1, well b: 85130; control promoter light, run 1, well a: 86290; control promoter light, run 1, well b: 68310; uninduced reporter light, run 1, well a: 6610

Part of the list above, limited to “induced reporter light, run 1, well b”:
Smyd4-1: 1.57e5
RpS16: 85130

More entries:
CG30222 #1 | induced reporter light, run 1, well a: 46685; induced reporter light, run 1, well b: 58315; control promoter light, run 1, well a: 65605; control promoter light, run 1, well b: 60995; uninduced reporter light, run 1, well a: 4880
CG30222 #2 | induced reporter light, run 1, well a: 60305; induced reporter light, run 1, well b: 58035; control promoter light, run 1, well a: 52450; control promoter light, run 1, well b: 52925; uninduced reporter light, run 1, well a: 3505
CG4653 | induced reporter light, run 1, well a: 1.58e5; induced reporter light, run 1, well b: 2.12e5; control promoter light, run 1, well a: 1.51e5; control promoter light, run 1, well b: 95010; uninduced reporter light, run 1, well a: 12250
Pcl | induced reporter light, run 1, well a: 83545; induced reporter light, run 1, well b: 87415; control promoter light, run 1, well a: 1.74e5; control promoter light, run 1, well b: 2.11e5; uninduced reporter light, run 1, well a: 6950
RhoGEF2 | induced reporter light, run 1, well a: 1.15e5; induced reporter light, run 1, well b: 1.26e5; control promoter light, run 1, well a: 1.79e5; control promoter light, run 1, well b: 2.43e5; uninduced reporter light, run 1, well a: 9180
Sik2 | induced reporter light, run 1, well a: 1.41e5; induced reporter light, run 1, well b: 1.41e5; control promoter light, run 1, well a: 2.15e5; control promoter light, run 1, well b: 2.48e5; uninduced reporter light, run 1, well a: 10265
lbm | induced reporter light, run 1, well a: 1.78e5; induced reporter light, run 1, well b: 1.76e5; control promoter light, run 1, well a: 1.81e5; control promoter light, run 1, well b: 1.65e5; uninduced reporter light, run 1, well a: 16165
CG32832 | induced reporter light, run 1, well a: 91740; induced reporter light, run 1, well b: 86120; control promoter light, run 1, well a: 67300; control promoter light, run 1, well b: 53290; uninduced reporter light, run 1, well a: 6615
Nmdar1 #1 | induced reporter light, run 1, well a: 1.61e5; induced reporter light, run 1, well b: 1.44e5; control promoter light, run 1, well a: 1.63e5; control promoter light, run 1, well b: 1.52e5; uninduced reporter light, run 1, well a: 12055
Nmdar1 #2 | induced reporter light, run 1, well a: 87235; induced reporter light, run 1, well b: 1.18e5; control promoter light, run 1, well a: 98030; control promoter light, run 1, well b: 77190; uninduced reporter light, run 1, well a: 5420
CG17380 | induced reporter light, run 1, well a: 1.28e5; induced reporter light, run 1, well b: 1.50e5; control promoter light, run 1, well a: 1.44e5; control promoter light, run 1, well b: 1.56e5; uninduced reporter light, run 1, well a: 11900
CG15625 | induced reporter light, run 1, well a: 72530; induced reporter light, run 1, well b: 69285; control promoter light, run 1, well a: 73695; control promoter light, run 1, well b: 58490; uninduced reporter light, run 1, well a: 4165
